Data as given in PubChem BioAssay AID504795 (Drosophila RNAi Screening Center, 2011)

Assay: 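Genes required for normal axon extension and glial cell shape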 (primary screen)
Cells: primary Drosophila neurons and glia
Reagents: long dsRNA against Drosophila genes, 250 ng dsRNA per well
Time to read-out: one week
Measurement: 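Descriptive morphology terms assigned by visual inspection of live automated images of GFP-marked cells, taken one week after adding 250 ng dsRNA per well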
The reagents shown are a selection, not the whole library. 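Every listed dsRNA shows some phenotype; how reagents were selected for listing is not stated.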 The numbers tell different reagents against one gene apart. A plus sign joins genes that one reagent is predicted to hit.

phenotype seen, replicate 1	phenotype seen, replicate 2	gene	reagent
too many neurite branches		CG3600 (retired record)	1
reduced axon outgrowth		CG6420	1
abnormal cell clusters		CG33964 + CG13175	1
sheet-like cell extensions		Cpr78Cc	1
reduced axon outgrowth		RpL18A	1
too many neurite branches		CG15651	1
reduced axon outgrowth		CG34310	1
abnormal cell clusters		CG42523	1
axon bundles split apart		CG31729	1
too many neurite branches		CG18449	1
reduced axon outgrowth		CG15553	1
axon bundles split apart		CG17475	1
too many neurite branches		comr	1
too many neurite branches		Mfe2	1
axon bundles split apart		Gr64f	1
beaded; swollen axons		CG10357	1
axon bundles split apart		Cpr30F	1
too many neurite branches		tsr	1
beaded; swollen axons		Arglu1	1
abnormal cell clusters		Nup58	1
beaded; swollen axons	axon bundles split apart	CG31463	1
axon bundles split apart		conv	1
sheet-like cell extensions		ovo	1
beaded; swollen axons		eIF2beta	1
abnormal cell clusters		Sse	1
axon bundles split apart		Snrk	1
too many neurite branches		Osi24	1
too many neurite branches		Eig71Eg	1
axon bundles split apart	fewer cells	CG12589	1
axon bundles split apart		CG8323	1
too many neurite branches		vtd	1
sheet-like cell extensions		Rac2	1
beaded; swollen axons		Akh	1
axon bundles split apart		Grip	1
axon bundles split apart		Grip	2
reduced axon outgrowth		CG4998	1
abnormal cell clusters		CG33655	1
abnormal cell clusters		hdm	1
axon bundles split apart		sdt	1
abnormal cell clusters		CG34355	1
too many neurite branches		CG34355	2
too many neurite branches		CG30127 (retired record)	1
axon bundles split apart		CG4363	1
cell fragments present	fewer cells	CG32137	1

4 entries from above, reformatted:
phenotype seen, replicate 1 | phenotype seen, replicate 2 | gene | reagent
beaded; swollen axons | – | CG10357 | 1
axon bundles split apart | – | Cpr30F | 1
too many neurite branches | – | tsr | 1
beaded; swollen axons | – | Arglu1 | 1
